Laboratory results published in the supplement of paper PMC8728848.
This is one part of the list.

Experiments:
Assay in all cases: glycan array binding signal (z-score within array); higher = stronger binding
Details in all cases: glycan notation: IUPAC condensed, linker removed
[1] = biological target: Gal(b1-4)GlcNAc(b1-3)Gal(b1-4)GlcNAc(b1-3)Gal(b1-4)GlcNAc(b1-3)Gal(b1-4)GlcNAc(b1-2)Man(a1-3)[Gal(b1-4)GlcNAc(b1-3)Gal(b1-4)GlcNAc(b1-3)Gal(b1-4)GlcNAc(b1-3)Gal(b1-4)GlcNAc(b1-2)Man(a1-6)]Man(b1-4)GlcNAc(b1-4)[Fuc(a1-6)]GlcNAc
Outline: (§1)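 The binding signal is a Z-score computed within each array. Data were drawn from 3228 arrays in the Consortium for Functional Glycomics database, restricted to those with a known protein sequence. Scores were averaged over arrays of the same protein sequence at different concentrations or buffers, and over linkers, and negative values can be taken as non-binding.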

[2] = biological target: Gal(b1-4)GlcNAc(b1-3)Gal(b1-4)GlcNAc(b1-3)Gal(b1-4)GlcNAc(b1-3)Gal(b1-4)GlcNAc(b1-2)[Gal(b1-4)GlcNAc(b1-3)Gal(b1-4)GlcNAc(b1-3)Gal(b1-4)GlcNAc(b1-3)Gal(b1-4)GlcNAc(b1-6)]Man(a1-6)[Gal(b1-4)GlcNAc(b1-3)Gal(b1-4)GlcNAc(b1-3)Gal(b1-4)GlcNAc(b1-3)Gal(b1-4)GlcNAc(b1-2)Man(a1-3)]Man(b1-4)GlcNAc(b1-4)[Fuc(a1-6)]GlcNAc
Outline: as §1

[3] = biological target: Gal(b1-4)GlcNAc(b1-3)Gal(b1-4)GlcNAc(b1-3)Gal(b1-4)GlcNAc(b1-3)Gal(b1-4)GlcNAc(b1-3)Gal(b1-4)GlcNAc(b1-2)Man(a1-3)[Gal(b1-4)GlcNAc(b1-3)Gal(b1-4)GlcNAc(b1-3)Gal(b1-4)GlcNAc(b1-3)Gal(b1-4)GlcNAc(b1-3)Gal(b1-4)GlcNAc(b1-2)Man(a1-6)]Man(b1-4)GlcNAc(b1-4)GlcNAc
Outline: as §1

[4] = biological target: Gal(b1-4)GlcNAc(b1-3)Gal(b1-4)GlcNAc(b1-3)Gal(b1-4)GlcNAc(b1-3)Gal(b1-4)GlcNAc(b1-3)Gal(b1-4)GlcNAc(b1-2)Man(a1-3)[Gal(b1-4)GlcNAc(b1-3)Gal(b1-4)GlcNAc(b1-3)Gal(b1-4)GlcNAc(b1-3)Gal(b1-4)GlcNAc(b1-3)Gal(b1-4)GlcNAc(b1-2)Man(a1-6)]Man(b1-4)GlcNAc(b1-4)[Fuc(a1-6)]GlcNAc
Outline: as §1

[5] = biological target: Gal(b1-4)GlcNAc(b1-3)Gal(b1-4)GlcNAc(b1-3)Gal(b1-4)GlcNAc(b1-3)Gal(b1-4)GlcNAc(b1-3)Gal(b1-4)GlcNAc(b1-2)[Gal(b1-4)GlcNAc(b1-3)Gal(b1-4)GlcNAc(b1-3)Gal(b1-4)GlcNAc(b1-3)Gal(b1-4)GlcNAc(b1-3)Gal(b1-4)GlcNAc(b1-6)]Man(a1-6)[Gal(b1-4)GlcNAc(b1-3)Gal(b1-4)GlcNAc(b1-3)Gal(b1-4)GlcNAc(b1-3)Gal(b1-4)GlcNAc(b1-3)Gal(b1-4)GlcNAc(b1-2)Man(a1-3)]Man(b1-4)GlcNAc(b1-4)[Fuc(a1-6)]GlcNAc
Outline: as §1

[6] = biological target: Gal(b1-4)GlcNAc(b1-3)Gal(b1-4)GlcNAc(b1-3)Gal(b1-4)GlcNAc(b1-3)Gal(b1-4)GlcNAc(b1-3)Gal(b1-4)GlcNAc(b1-3)Gal(b1-4)GlcNAc(b1-2)Man(a1-3)[Gal(b1-4)GlcNAc(b1-3)Gal(b1-4)GlcNAc(b1-3)Gal(b1-4)GlcNAc(b1-3)Gal(b1-4)GlcNAc(b1-3)Gal(b1-4)GlcNAc(b1-3)Gal(b1-4)GlcNAc(b1-2)Man(a1-6)]Man(b1-4)GlcNAc(b1-4)GlcNAc
Outline: as §1

[7] = biological target: Gal(b1-4)GlcNAc(b1-3)Gal(b1-4)GlcNAc(b1-3)GalNAc
Outline: as §1

[8] = biological target: Gal(b1-4)GlcNAc(b1-3)Gal(b1-4)GlcNAc(b1-3)[Gal(b1-4)GlcNAc(b1-3)Gal(b1-4)GlcNAc(b1-6)]GalNAc
Outline: as §1

[9] = biological target: Gal(b1-4)GlcNAc(b1-3)Gal(b1-4)GlcNAc(b1-6)[Gal(b1-3)]GalNAc
Outline: as §1

[10] = biological target: Gal(b1-4)GlcNAc(b1-3)Gal(b1-4)[Fuc(a1-3)]GlcNAc(b1-3)Gal(b1-4)[Fuc(a1-3)]GlcNAc
Outline: as §1

[11] = biological target: Gal(b1-4)GlcNAc(b1-3)GalNAc
Outline: as §1

[12] = biological target: Gal(b1-4)GlcNAc(b1-3)[Fuc(a1-3)GlcNAc(b1-6)]Gal(b1-4)Glc
Outline: as §1

[13] = biological target: Gal(b1-4)GlcNAc(b1-3)[Gal(b1-4)GlcNAc(b1-6)]Gal(b1-4)GlcNAc
Outline: as §1

[14] = biological target: Gal(b1-4)GlcNAc(b1-3)[GlcNAc(b1-6)]Gal(b1-4)GlcNAc
Outline: as §1

[15] = biological target: Gal(b1-4)GlcNAc(b1-6)Gal(b1-4)GlcNAc
Outline: as §1

[16] = biological target: Gal(b1-4)GlcNAc(b1-6)GalNAc
Outline: as §1

[17] = biological target: Gal(b1-4)GlcNAc(b1-6)[Gal(b1-3)]GalNAc
Outline: as §1

[18] = biological target: Gal(b1-4)GlcNAc(b1-6)[Gal(b1-4)GlcNAc(b1-3)]GalNAc
Outline: as §1

Gal(b1-4)GlcNAc6P = biological target: Gal(b1-4)GlcNAc6P
Outline: as §1

Gal(b1-6)Gal = biological target: Gal(b1-6)Gal
Outline: as §1

Gal3S(b1-3)GalNAc = biological target: Gal3S(b1-3)GalNAc
Outline: as §1

Gal3S(b1-3)GlcNAc = biological target: Gal3S(b1-3)GlcNAc
Outline: as §1

[19] = biological target: Gal3S(b1-3)[Fuc(a1-4)]GlcNAc
Outline: as §1

B1: Loc1 (Escherichia coli) (protein)
chain: APCALTNVGEQRGTYILKPLSMKGNLTAEKIENTGNIIECTDLQETTNAIKVHFLTQNALKFKVGSRHYIINFPFEYDGKKIELPGKSSYNLEEMLSAINFTIPYSIASVSDSSNTADIFPGTPFPLLFEIEVSSCTGNNTNCNSVRFNYNLNTILQVNLMTHHHHHH
glycan array binding signal (z-score) [1]: 2.43 | glycan array binding signal (z-score) [2]: -0.474 | glycan array binding signal (z-score) [3]: 0.363 | glycan array binding signal (z-score) [4]: 1.98 | glycan array binding signal (z-score) [5]: 0.935 | glycan array binding signal (z-score) [6]: 0.16 | glycan array binding signal (z-score) [7]: -0.212 | glycan array binding signal (z-score) [8]: 0.233 | glycan array binding signal (z-score) [9]: -0.562 | glycan array binding signal (z-score) [10]: 0.555 | glycan array binding signal (z-score) [11]: -0.258 | glycan array binding signal (z-score) [12]: -0.118 | glycan array binding signal (z-score) [13]: 0.396 | glycan array binding signal (z-score) [14]: -0.48 | glycan array binding signal (z-score) [15]: -0.424 | glycan array binding signal (z-score) [16]: -0.233 | glycan array binding signal (z-score) [17]: 0.844 | glycan array binding signal (z-score) [18]: 1.15 | glycan array binding signal (z-score) (Gal(b1-4)GlcNAc6P): -0.213 | glycan array binding signal (z-score) (Gal(b1-6)Gal): -0.579 | glycan array binding signal (z-score) (Gal3S(b1-3)GalNAc): 0.608 | glycan array binding signal (z-score) (Gal3S(b1-3)GlcNAc): 0.067 | glycan array binding signal (z-score) [19]: -0.024
